# Results as given in the supplement of paper PMC7752906.
# Structures can show the parent of a compound that is named as a salt. The list shows a part of the results. Single values are uncertain here, since repeats match poorly.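 Test system: Schistosoma mansoni schistosomula, roughly 40 per well, imaged in bright field over time and compared with wells given 0.1% DMSO. Distance read-out: the paper calls a drug a hit when its Mahalanobis distance is at least 2.47, three standard deviations above the DMSO control mean. Degeneracy is the share of worms classified opaque.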
# System: Schistosoma mansoni schistosomula
# Assay: Mahalanobis distance of static-rate-frequency phenotype descriptors from DMSO controls (dimensionless); higher = stronger phenotypic change versus DMSO
# Settings: 10 µM; 72 h
row,Structure (SMILES),Mahalanobis distance
1,CC(C)N(CCC(C(N)=O)(c1ccccc1)c1ccccn1)C(C)C (configuration not stated) [Disopyramide],inactive: 1.22
2,Nc1nc(N)nc(NC2CC2)n1 [Cyromazine],inactive: 1.94
3,CN1[C@@H]2CC[C@H]1C[C@@H](OC(=O)[C@H](CO)c1ccccc1)C2 [Hyoscyamine],inactive: 1.85
4,O=C1CN=C(c2ccccc2Cl)c2cc([N+](=O)[O-])ccc2N1 [Clonazepam],active: 4.74
5,C=C(C)[C@H]1CN[C@H](C(=O)O)[C@H]1CC(=O)O [Kainic Acid],inactive: 1.27
6,CC[C@H]1CN2CC[C@H]1C[C@@H]2[C@@H](O)c1ccnc2ccc(OC)cc12 [Hydroquinidine],active: 2.8
7,COc1ccc(CN2CCNCC2)c(OC)c1OC [Trimetazidine],inactive: 2.45
8,CC(C)CC(N(C)C)C1(c2ccc(Cl)cc2)CCC1 (configuration not stated) [Sibutramine],active: 2.49
9,CNC1(c2ccccc2Cl)CCCCC1=O (configuration not stated) [Ketamine],active: 3.04
10,CCN(CC)C(=O)N[C@H]1C=C2c3cccc4[nH]cc(c34)C[C@H]2N(C)C1 [Lisuride],active: 2.51
11,O=C([O-])Cc1ccccc1.[Na+] [Sodium Phenylacetate],inactive: 1.52
12,COc1ccc2c(c1)[C@]13CCCC[C@@H]1[C@H](C2)N(C)CC3 [Dextromethorphan Hydrobromide],active: 4.71
13,CC(Cc1ccc(O)cc1)NCC(O)c1cc(O)cc(O)c1 (configuration not stated) [Fenoterol Hydrobromide],inactive: 1.54
14,C=CCN=C=S [Allylisothiocyanate],inactive: 2
15,C=CC[C@]1(O)CC[C@H]2[C@@H]3CCC4=CC(=O)CCC4=C3C=C[C@@]21C [Altrenogest],active: 3.43
16,O=C1C=C2C=C[C@@H]3C[C@@]2(O1)[C@H]1CCCCN31 [securinine],active: 2.77
17,CCN[C@@H](C)Cc1cccc(C(F)(F)F)c1 [Dexfenfluramine],active: 3.34
18,NC(=O)C[S@@+]([O-])C(c1ccccc1)c1ccccc1 [Armodafinil],inactive: 2.21
19,CC(C)=CC1C(C(=O)OCc2cccc(Oc3ccccc3)c2)C1(C)C (configuration not stated) [Phenothrin],inactive: 2.13
20,Nc1ccncc1 [4-aminopyridine],inactive: 2.15
21,COc1ccc(C(=O)N2CCCC2=O)cc1 [Aniracetam],active: 2.54
22,CC[C@@H](C(N)=O)N1CCCC1=O [Levetiracetam],inactive: 1.2
23,O=C(O)CCCc1ccc(N(CCCl)CCCl)cc1 [Chlorambucil],inactive: 1.81
24,CCCN1C[C@H](CSC)C[C@@H]2c3cccc4[nH]cc(c34)C[C@H]21 [Pergolide],active: 6.2

# As a working copy, part of the list above:
row,Structure (SMILES),Mahalanobis distance
8,CC(C)CC(N(C)C)C1(c2ccc(Cl)cc2)CCC1 (configuration not stated) [Sibutramine],active: 2.49
9,CNC1(c2ccccc2Cl)CCCCC1=O (configuration not stated) [Ketamine],active: 3.04

# Later entries.

row,Structure (SMILES),Mahalanobis distance
1,CNc1ccc(C(=O)CC(O)CCC(C)C2OC(=O)CC(O)CC(=O)CC(O)CC(O)CC(O)CC(O)CC3(O)CC(O)C(C(=O)OC)C(CC(O[C@@H]4O[C@H](C)[C@@H](O)[C@H](N)[C@@H]4O)/C=C/C=C/C=C/C=C/C=C/C=C/C=C/C2C)O3)cc1.COC(=O)C1C(O)CC2(O)CC(O)CC(O)CC(O)CC(O)CC(=O)CC(O)CC(=O)OC(C(C)CCC(O)CC(=O)c3ccc(N)cc3)C(C)/C=C/C=C/C=C/C=C/C=C/C=C/C=C/C(O[C@@H]3O[C@H](C)[C@@H](O)[C@H](N)[C@@H]3O)CC1O2 (some centres not stated) [mepartricin],inactive: 1.59
2,Cc1ncc(CNC(=O)N(CCCl)N=O)c(N)n1 [Nimustine],inactive: 1.6
3,COc1cccc(C2(O)CCCCC2CN(C)C)c1 (configuration not stated) [Tramadol],inactive: 2.35
4,COc1cccc(C2(O)CCCCC2CN(C)C)c1 (configuration not stated) [Tramadol Hydrochloride],active: 3.12
5,CC(CCc1ccccc1)NC(C)C(O)c1ccc(O)cc1 (configuration not stated) [Nylidrin],active: 2.96
6,CN1C[C@H](C(=O)N[C@]2(C)O[C@@]3(O)[C@@H]4CCCN4C(=O)[C@H](Cc4ccccc4)N3C2=O)C[C@@H]2c3cccc4[nH]cc(c34)C[C@H]21 [Dihydroergotamine],inactive: 2.33
7,CCC1(CC)C(=O)C=CNC1=O [Pyrithyldione],inactive: 2.44
8,CC(C)(C)NCC(O)c1cc(Cl)c(N)c(Cl)c1 (configuration not stated) [Clenbuterol],inactive: 2.09
9,COC(=O)C1=CCCN(C)C1 [Arecoline Hydrobromide],active: 2.5
10,CNCC(=O)c1ccc(O)c(O)c1 [Adrenolone Hydrochloride],inactive: 2.35
11,O=C(NC(=O)c1c(F)cccc1F)Nc1cc(Cl)c(OC(F)(F)C(F)C(F)(F)F)cc1Cl (configuration not stated) [Lufenuron],inactive: 2.07
12,COc1ccc(CCN2CCC(Nc3nc4ccccc4n3Cc3ccc(F)cc3)CC2)cc1 [Astemizole],inactive: 1.73
13,Oc1cc(Cl)ccc1Oc1ccc(Cl)cc1Cl [Triclosan],active: 2.63
14,COc1ccc(O)c(C(C)(C)C)c1.COc1ccc(O)cc1C(C)(C)C [Butylated Hydroxyanisole],active: 3.07
15,CCn1cc(C(=O)O)c(=O)c2cc3c(cc21)OCO3 [Oxolinic Acid],inactive: 2.09
16,C[N+]1(C)[C@@H]2C[C@@H](OC(=O)[C@H](CO)c3ccccc3)C[C@H]1[C@@H]1O[C@@H]12 [Methscopolamine Bromide],inactive: 1.36
17,CCN(C)C(=O)Oc1cccc([C@H](C)N(C)C)c1 [Rivastigmine Tartrate],inactive: 1.65
18,C[C@@H]1O[C@@H](O[C@H]2C[C@@H](O)[C@]3(CO)[C@H]4[C@H](O)C[C@]5(C)[C@@H](C6=CC(=O)OC6)CC[C@]5(O)[C@@H]4CC[C@]3(O)C2)[C@H](O)[C@H](O)[C@H]1O [Ouabain],active: 3.14
19,N=C1NC(=O)N2CC12 (configuration not stated) [Imexon],inactive: 1.84
20,C[N+]1([O-])[C@@H]2CC[C@H]1C[C@@H](OC(=O)C(CO)c1ccccc1)C2 (some centres not stated) [Atropine Oxide],inactive: 1.7
21,Clc1ccc(C(OCCN2CCCCC2)c2ccccc2)cc1 (configuration not stated) [Cloperastine Hydrochloride],inactive: 1.95
22,C[C@@H](CO)NC(=O)[C@@H]1C=C2c3cccc4[nH]cc(c34)C[C@H]2N(C)C1 [Ergonovine],active: 3.23
23,C[C@@H](CO)NC(=O)[C@@H]1C=C2c3cccc4[nH]cc(c34)C[C@H]2N(C)C1 [Ergonovine Maleate],active: 4.9
